The record followed here is PubChem BioAssay AID328 (DTP/NCI, 2004).

The list does not hold the whole screen: it gathers tests that were run many times, whatever their T/C, doses with no T/C, and many T/C values between a quarter and a half above the control. Further doses and runs are listed elsewhere. T/C: endpoint of the treated group in % of that of the vehicle group. Some entries give survivors of the animals treated and no T/C: the source files T/C as zero there, which appears to mark a toxic dose or a test without result, not a measured value. Some survivor counts are full or nearly so, which does not show that the dose was tolerated: the source hardly ever lists a survival T/C far under the control, and the zero likely stands for such cases as well. Survivors were counted at the toxicity check, usually on the fifth day, unless a day is given; later deaths do not show. Schedule codes are those of the source, taken here to give the interval after Q, in days (D) or hours (H), and the number of doses after X. Where survival is the endpoint, this PubChem deposit counts one and a half times the control or more as active, and values a quarter to a half above the control carry no call in these data; other NCI protocols may use other cut-offs. Some T/C values carry the count of animals alive at the toxicity check (mostly the fifth day); where none is given, no animal had died by that day. Some entries were tested several times; the results are listed from low to high.

The experiment concerns BDF1 mice, P388 leukemia ip, median survival T/C. In words: NCI In Vivo Anticancer Drug Screen. Data for tumor model P388 Leukemia (intraperitoneal) in B6D2F1 (BDF1) mice. As to conditions: T/C endpoint: median survival time, higher T/C = longer survival. The method in brief: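 Vehicle-dosed animals serve as the reference; survival of compound-dosed, tumour-implanted mice is divided by it.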

The mark [1] stands for this setting: dose: 100.0 mg/kg/injection, schedule: Q01DX009 (ip), vehicle: saline with Tween-80.
[2] abbreviates: dose: 200.0 mg/kg/injection, schedule: Q01DX009 (ip), vehicle: saline with Tween-80.
The mark [3] stands for this setting: dose: 400.0 mg/kg/injection, schedule: Q01DX009 (ip), vehicle: saline with Tween-80.
The mark [4] stands for this setting: dose: 200.0 mg/kg/injection, schedule: Q01DX009 (ip), vehicle: Klucel (hydroxypropylcellulose) (HPC).
Setting [5] is: dose: 400.0 mg/kg/injection, schedule: Q01DX009 (ip), vehicle: Klucel (hydroxypropylcellulose) (HPC).
[6] abbreviates: dose: 100.0 mg/kg/injection, schedule: Q04DX003 (ip), vehicle: saline with Tween-80.
[7] abbreviates: dose: 400.0 mg/kg/injection, schedule: Q04DX003 (ip), vehicle: saline with Tween-80.

Consider `CC[N+](C)(CC)CCC[n+]1c(-c2ccccc2)c2cc(N)ccc2c2ccc(N)cc21`, for which the survivor count is on record as 3 of 6 (dose: 6.0 mg/kg/injection, schedule: Q01DX009 (ip), vehicle: saline) and 2 of 6 (dose: 12.5 mg/kg/injection, schedule: Q04DX003 (ip), vehicle: saline). Turning to `CS(=O)(=O)OC[C@@H](O)[C@@H](O)COS(C)(=O)=O`, the T/C (dose: 200.0 mg/kg/injection, schedule: Q01DX009 (ip), vehicle: saline) is 129 % of control and the T/C (dose: 400.0 mg/kg/injection, schedule: Q01DX009 (ip), vehicle: saline) was 131 % of control.

Consider `Cn1c(CC(O)(C(F)(F)F)C(F)(F)F)cc2ccccc21`, for which, under “dose: 200.0 mg/kg/injection, schedule: Q01DX001 (ip), vehicle: other”, the survivor count is listed as 6 of 6. In the case of `CCN(CC)C(=S)S`, the T/C (dose: 800.0 mg/kg/injection, schedule: Q01DX010 (ip), vehicle: water) is 140 % of control. As to `CC1OC(OC2CC(O)(C(=O)CO)Cc3c(O)c4c(c(O)c32)C(=O)c2ccccc2C4=O)CC(N)C1O` (configuration not stated), under “dose: 1000.0 micrograms/kg/injection, schedule: Q04DX003 (ip), vehicle: water”, the T/C is 129 % of control. For the compound `CCOC(=O)/C(=N\O)C1=CSC2=NNC(C)(C)N12`, under setting [1], the survivor count is reported as 6 of 6. As to `N=C1SCc2ccc3ccccc3c21`, under setting [2], the T/C was 131 % of control [5 of 6 alive]. The survivor count under setting [3] is listed as 2 of 6.

Turning to `CCOC(=O)/C(C)=C\c1c(C)[nH]c(=O)[nH]c1=O`, the survivor count (dose: 100.0 mg/kg/injection, schedule: Q04DX003 (ip), vehicle: saline) was 6 of 6. As to `c1cncc(-c2ncnc3c2Cc2ccccc2-3)c1`, for the setting “dose: 300.0 mg/kg/injection, schedule: Q01DX009 (ip), vehicle: Klucel (hydroxypropylcellulose) (HPC)”, the survivor count was 1 of 6. As to `CCCCC(CC)(CC(=O)O)CC(=O)O`, the T/C (dose: 80.0 mg/kg/injection, schedule: Q01DX010 (ip), vehicle: water) was 127 % of control. `CC(Nc1ccccc1)(C(N)=O)c1ccccc1` (configuration not stated): the survivor count (dose: 100.0 mg/kg/injection, schedule: Q01DX001 (ip), vehicle: saline with Tween-80) is given as 6 of 6. Take `CC(=O)/C=C/c1ccco1`: the survivor count (dose: 100.0 mg/kg/injection, schedule: Q01DX009 (ip), vehicle: DMSO) was 3 of 6 and the survivor count (dose: 100.0 mg/kg/injection, schedule: Q04DX003 (ip), vehicle: DMSO) is 5 of 6. `C=C1N(C)c2ccccc2C1(C)C`: where the note is “dose: 11.8 mg/kg/injection, schedule: Q01DX009 (ip), vehicle: saline with Tween-80”, the T/C is 125 % of control. Take `C=C(C)C(=O)O[C@@H]1C[C@@]2(C)O[C@@H]2C[C@H](O)/C(C)=C/[C@H]2OC(=O)C(=C)[C@@H]21`: the T/C (dose: 24.0 mg/kg/injection, schedule: Q01DX009 (ip), vehicle: saline + alcohol) was 127 % of control. As to `C[C@]12CCC(=O)C=C1CC[C@@H]1[C@@H]2[C@@H](O)C[C@@]2(C)[C@H]1CC[C@]2(O)C(=O)COC(=O)CCC1CCCC1`, the survivor count by setting is: (dose: 100.0 mg/kg/injection, schedule: Q01DX009 (ip), vehicle: Klucel (hydroxypropylcellulose) (HPC)) 6 of 6; under setting [4], 6 of 6; under setting [5], 6 of 6.

As to `COc1cc2ccc3c(c2cc1OC)CN1CCc2cc4c(cc2C1C3)OCO4` (configuration not stated), the T/C is, setting by setting: (dose: 66.0 mg/kg/injection, schedule: Q01DX009 (ip), vehicle: saline with Tween-80) 130 % of control; under setting [1], 140 [5 of 6 alive] and 145 % of control; (dose: 150.0 mg/kg/injection, schedule: Q01DX009 (ip), vehicle: saline with Tween-80) 140 % of control. Turning to `CCOC(=O)CC(C)(C)NCc1ccccc1`, under “dose: 50.0 mg/kg/injection, schedule: Q01DX009 (ip), vehicle: Klucel (hydroxypropylcellulose) (HPC)”, the survivor count is 5 of 6. Regarding `NC(CO)C(=O)O.[Cl-].[Cl-].[Cl-].[Cl-].[Pt+2]` (configuration not stated), the T/C reads like this: (dose: 12.5 mg/kg/injection, schedule: Q01DX009 (ip), vehicle: saline) 129 % of control; (dose: 25.0 mg/kg/injection, schedule: Q01DX009 (ip), vehicle: saline) 143 % of control. The survivor count (dose: 100.0 mg/kg/injection, schedule: Q01DX009 (ip), vehicle: saline) is given as 5 of 6. With `CCC[CH2][Pb]([CH2]CCC)([O]C(C)=O)[O]C(C)=O`, the survivor count by setting is: (dose: 25.0 mg/kg/injection, schedule: Q04DX003 (ip), vehicle: saline with Tween-80) 0 of 6; (dose: 50.0 mg/kg/injection, schedule: Q04DX003 (ip), vehicle: saline with Tween-80) 0 of 6; under setting [6], 0 of 6. In the case of `S=C([S][Sn]([c]1ccccc1)([c]1ccccc1)[c]1ccccc1)N1CCCCC1`, the survivor count (dose: 50.0 mg/kg/injection, schedule: Q01DX009 (ip), vehicle: saline with Tween-80) is given as 6 of 6; the survivor count under setting [1] is recorded as 5 of 6; the survivor count under setting [2] is given as 1 of 6; the survivor count under setting [3] is 0 of 6.

Consider `CCCNCC(O)c1cc(C(F)(F)F)nc2c(C(F)(F)F)cccc12` (configuration not stated), for which the survivor count under setting [2] is on record as 0 of 6. On to `Cc1cc(O)c2cc3c(O)c(O)ccc3cc2c1`, for which, under “dose: 0.25 mg/kg/injection, schedule: Q01DX010 (ip), vehicle: saline”, the T/C was 136 % of control. Besides, the survivor count runs as follows: (dose: 8.0 mg/kg/injection, schedule: Q01DX010 (ip), vehicle: saline) 3 of 6; (dose: 16.0 mg/kg/injection, schedule: Q01DX010 (ip), vehicle: saline) 3 of 6; (dose: 62.5 micrograms/kg/injection, schedule: Q01DX010 (ip), vehicle: saline) 5 of 6. In the case of `[I][Hg][CH2]C1OCCOC1[CH2][Hg][I]` (configuration not stated), the survivor count under setting [3] is listed as 1 of 6. Turning to `CC(=O)O[C@]1(C(C)=O)CC[C@H]2[C@@H]3C[C@H](F)C4=CC(=O)CC[C@]4(C)[C@H]3CC[C@@]21C`, the survivor count is, setting by setting: under setting [4], 6 of 6; under setting [5], 6 of 6.

As to `OCCOc1c(Cl)cc(Cl)cc1Cl`, the survivor count under setting [7] was 6 of 6. Take `OCCOCC(F)(F)F`: the survivor count runs as follows: under setting [2], 6 of 6; under setting [3], 6 of 6. For `CCCCCCCCCCCCCCCCS(=O)(=O)CCO`, under setting [7], the survivor count is recorded as 6 of 6. `CC1=CC2OC34COC3CC(OC(=O)C(F)(F)F)C4(C)C2(C)CC1` (configuration not stated): the T/C (dose: 37.5 mg/kg/injection, schedule: Q04DX003 (ip), vehicle: saline with Tween-80) was 130 % of control and the T/C (dose: 150.0 mg/kg/injection, schedule: Q04DX003 (ip), vehicle: saline with Tween-80) was 125 % of control.

Consider `[NH-]C(CC(N)=O)C(=O)O.[NH-]C(CC(N)=O)C(=O)O.[Ni+2]` (configuration not stated), for which the survivor count by setting is: (dose: 25.0 mg/kg/injection, schedule: Q01DX009 (ip), vehicle: water) 5 of 6; (dose: 50.0 mg/kg/injection, schedule: Q01DX009 (ip), vehicle: water) 3 of 6. For `O=C(N1CCCC1)C(F)(F)C(F)(F)C(F)(F)F`, the survivor count under setting [2] is on record as 6 of 6. Turning to `CS(=O)(=O)OCCN(CCOS(C)(=O)=O)c1cccc(C(F)(F)F)c1`, the T/C under setting [6] is 131 % of control. Besides, the survivor count was 6 of 6 (dose: 200.0 mg/kg/injection, schedule: Q04DX003 (ip), vehicle: saline with Tween-80) and 4 of 6 under setting [7]. On to `CCOC(=O)c1ccc(NS(=O)c2ccccc2)cc1` (configuration not stated), for which the survivor count under setting [3] is 3 of 6. On to `CCN1/C(=C/C(C)=C/c2sc3ccccc3[n+]2CC)Sc2ccccc21`, for which the T/C (dose: 200.0 micrograms/kg/injection, schedule: Q01DX009 (ip), vehicle: Klucel (hydroxypropylcellulose) (HPC)) is 125 % of control [5 of 6 alive]. Moreover, the survivor count (dose: 400.0 micrograms/kg/injection, schedule: Q01DX009 (ip), vehicle: Klucel (hydroxypropylcellulose) (HPC)) is on record as 1 of 6. Consider `O=C(c1ccccc1)c1ccccc1C(=O)c1ccccc1`, for which the survivor count is, setting by setting: under setting [4], 6 of 6; under setting [5], 6 of 6. On to `N#CC(C#N)=Cc1ccc2c(c1)CCC2`, for which the survivor count by setting is: (dose: 19.0 mg/kg/injection, schedule: Q01DX009 (ip), vehicle: saline with Tween-80) 6 of 6; (dose: 75.0 mg/kg/injection, schedule: Q01DX009 (ip), vehicle: saline with Tween-80) 2 of 6.
